Data reported in the supplement of paper PMC10849652.
This is one part of the list.

Chains of the proteins cited; added tags and fusions are not shown. Lines headed by an entry give the natural chain unless they say otherwise; changes in a name come on top.
UniProt Q9BRR6: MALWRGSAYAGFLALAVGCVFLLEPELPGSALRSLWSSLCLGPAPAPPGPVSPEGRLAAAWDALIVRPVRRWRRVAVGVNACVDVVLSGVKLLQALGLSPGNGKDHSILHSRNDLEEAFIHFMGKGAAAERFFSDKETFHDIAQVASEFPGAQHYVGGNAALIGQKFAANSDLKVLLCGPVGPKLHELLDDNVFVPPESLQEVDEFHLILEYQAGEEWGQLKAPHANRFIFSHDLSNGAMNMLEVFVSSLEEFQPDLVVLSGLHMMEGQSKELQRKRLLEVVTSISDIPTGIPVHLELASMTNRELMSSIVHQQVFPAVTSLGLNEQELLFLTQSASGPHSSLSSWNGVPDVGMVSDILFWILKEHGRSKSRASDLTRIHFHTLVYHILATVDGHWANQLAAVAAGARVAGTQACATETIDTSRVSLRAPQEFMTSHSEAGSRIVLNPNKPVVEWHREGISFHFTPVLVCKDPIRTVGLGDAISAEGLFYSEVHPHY
UniProt P42025, whole entry, looked up: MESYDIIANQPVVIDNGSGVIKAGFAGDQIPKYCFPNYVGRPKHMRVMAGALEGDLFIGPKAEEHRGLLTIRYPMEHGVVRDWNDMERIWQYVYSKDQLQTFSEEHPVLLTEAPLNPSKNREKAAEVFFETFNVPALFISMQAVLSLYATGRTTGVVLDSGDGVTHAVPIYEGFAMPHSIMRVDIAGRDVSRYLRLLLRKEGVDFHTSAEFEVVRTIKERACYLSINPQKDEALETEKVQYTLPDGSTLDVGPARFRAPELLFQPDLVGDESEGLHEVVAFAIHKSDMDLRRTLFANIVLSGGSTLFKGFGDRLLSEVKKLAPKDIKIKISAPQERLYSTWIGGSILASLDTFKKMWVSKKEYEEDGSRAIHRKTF
UniProt O00154: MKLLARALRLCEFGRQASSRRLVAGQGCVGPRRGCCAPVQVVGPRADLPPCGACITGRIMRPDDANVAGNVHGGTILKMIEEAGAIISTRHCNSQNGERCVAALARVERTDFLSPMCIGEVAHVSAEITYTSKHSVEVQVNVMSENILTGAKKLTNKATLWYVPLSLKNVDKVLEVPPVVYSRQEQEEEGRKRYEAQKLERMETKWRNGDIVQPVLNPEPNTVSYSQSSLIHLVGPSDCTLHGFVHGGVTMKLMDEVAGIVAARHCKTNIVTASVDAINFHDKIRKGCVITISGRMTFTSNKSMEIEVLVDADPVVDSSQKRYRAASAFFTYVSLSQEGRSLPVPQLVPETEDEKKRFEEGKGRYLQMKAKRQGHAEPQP
UniProt Q9UKA4: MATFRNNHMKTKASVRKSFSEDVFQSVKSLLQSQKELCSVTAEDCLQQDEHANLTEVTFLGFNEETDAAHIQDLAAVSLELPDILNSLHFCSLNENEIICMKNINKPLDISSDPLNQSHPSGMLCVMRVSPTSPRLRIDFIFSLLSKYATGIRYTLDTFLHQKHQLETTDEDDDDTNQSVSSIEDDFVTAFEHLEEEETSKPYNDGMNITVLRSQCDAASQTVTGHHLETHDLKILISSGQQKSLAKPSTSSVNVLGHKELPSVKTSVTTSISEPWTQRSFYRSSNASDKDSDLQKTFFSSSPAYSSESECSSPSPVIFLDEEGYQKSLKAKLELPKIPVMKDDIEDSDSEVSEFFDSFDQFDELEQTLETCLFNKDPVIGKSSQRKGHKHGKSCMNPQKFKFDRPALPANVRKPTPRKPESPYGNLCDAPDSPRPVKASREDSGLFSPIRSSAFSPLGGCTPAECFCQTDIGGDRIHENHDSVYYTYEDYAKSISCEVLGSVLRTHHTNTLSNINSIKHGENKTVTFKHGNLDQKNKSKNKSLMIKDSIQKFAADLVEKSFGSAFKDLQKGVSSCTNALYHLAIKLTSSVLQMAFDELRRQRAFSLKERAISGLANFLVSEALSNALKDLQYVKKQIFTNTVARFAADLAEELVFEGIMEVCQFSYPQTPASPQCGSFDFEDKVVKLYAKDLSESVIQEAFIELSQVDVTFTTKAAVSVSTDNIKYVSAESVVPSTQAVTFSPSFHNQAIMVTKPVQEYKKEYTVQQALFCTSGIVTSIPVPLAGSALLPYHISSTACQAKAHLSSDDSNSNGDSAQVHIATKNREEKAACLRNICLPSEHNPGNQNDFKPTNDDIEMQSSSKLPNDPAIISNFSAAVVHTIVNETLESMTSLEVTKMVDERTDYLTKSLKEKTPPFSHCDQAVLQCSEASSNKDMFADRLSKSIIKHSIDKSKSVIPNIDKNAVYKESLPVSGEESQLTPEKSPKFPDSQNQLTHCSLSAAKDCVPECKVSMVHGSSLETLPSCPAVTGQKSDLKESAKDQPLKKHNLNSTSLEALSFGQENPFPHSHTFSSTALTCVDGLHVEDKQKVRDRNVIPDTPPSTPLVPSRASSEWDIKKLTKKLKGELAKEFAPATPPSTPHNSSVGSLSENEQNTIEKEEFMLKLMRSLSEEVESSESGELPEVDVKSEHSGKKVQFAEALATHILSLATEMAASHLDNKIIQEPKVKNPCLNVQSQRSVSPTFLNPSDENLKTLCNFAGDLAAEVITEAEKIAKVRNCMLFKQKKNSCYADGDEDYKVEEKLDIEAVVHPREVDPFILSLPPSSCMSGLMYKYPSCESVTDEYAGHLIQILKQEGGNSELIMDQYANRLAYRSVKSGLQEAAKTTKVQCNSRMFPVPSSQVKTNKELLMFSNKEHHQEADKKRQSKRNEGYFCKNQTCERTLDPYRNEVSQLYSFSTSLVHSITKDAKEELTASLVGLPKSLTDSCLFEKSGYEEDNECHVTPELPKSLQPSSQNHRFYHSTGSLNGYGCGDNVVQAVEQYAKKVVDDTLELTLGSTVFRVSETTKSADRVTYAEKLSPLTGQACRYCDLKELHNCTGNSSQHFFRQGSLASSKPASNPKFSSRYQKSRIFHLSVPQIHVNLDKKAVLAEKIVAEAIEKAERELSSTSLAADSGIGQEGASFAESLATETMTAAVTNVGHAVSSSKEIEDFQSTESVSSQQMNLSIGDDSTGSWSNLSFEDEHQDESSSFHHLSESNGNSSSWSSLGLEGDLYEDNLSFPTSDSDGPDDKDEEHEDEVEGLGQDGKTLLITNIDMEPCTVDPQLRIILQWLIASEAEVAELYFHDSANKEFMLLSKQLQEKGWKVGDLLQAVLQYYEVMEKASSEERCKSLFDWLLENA
UniProt P51825: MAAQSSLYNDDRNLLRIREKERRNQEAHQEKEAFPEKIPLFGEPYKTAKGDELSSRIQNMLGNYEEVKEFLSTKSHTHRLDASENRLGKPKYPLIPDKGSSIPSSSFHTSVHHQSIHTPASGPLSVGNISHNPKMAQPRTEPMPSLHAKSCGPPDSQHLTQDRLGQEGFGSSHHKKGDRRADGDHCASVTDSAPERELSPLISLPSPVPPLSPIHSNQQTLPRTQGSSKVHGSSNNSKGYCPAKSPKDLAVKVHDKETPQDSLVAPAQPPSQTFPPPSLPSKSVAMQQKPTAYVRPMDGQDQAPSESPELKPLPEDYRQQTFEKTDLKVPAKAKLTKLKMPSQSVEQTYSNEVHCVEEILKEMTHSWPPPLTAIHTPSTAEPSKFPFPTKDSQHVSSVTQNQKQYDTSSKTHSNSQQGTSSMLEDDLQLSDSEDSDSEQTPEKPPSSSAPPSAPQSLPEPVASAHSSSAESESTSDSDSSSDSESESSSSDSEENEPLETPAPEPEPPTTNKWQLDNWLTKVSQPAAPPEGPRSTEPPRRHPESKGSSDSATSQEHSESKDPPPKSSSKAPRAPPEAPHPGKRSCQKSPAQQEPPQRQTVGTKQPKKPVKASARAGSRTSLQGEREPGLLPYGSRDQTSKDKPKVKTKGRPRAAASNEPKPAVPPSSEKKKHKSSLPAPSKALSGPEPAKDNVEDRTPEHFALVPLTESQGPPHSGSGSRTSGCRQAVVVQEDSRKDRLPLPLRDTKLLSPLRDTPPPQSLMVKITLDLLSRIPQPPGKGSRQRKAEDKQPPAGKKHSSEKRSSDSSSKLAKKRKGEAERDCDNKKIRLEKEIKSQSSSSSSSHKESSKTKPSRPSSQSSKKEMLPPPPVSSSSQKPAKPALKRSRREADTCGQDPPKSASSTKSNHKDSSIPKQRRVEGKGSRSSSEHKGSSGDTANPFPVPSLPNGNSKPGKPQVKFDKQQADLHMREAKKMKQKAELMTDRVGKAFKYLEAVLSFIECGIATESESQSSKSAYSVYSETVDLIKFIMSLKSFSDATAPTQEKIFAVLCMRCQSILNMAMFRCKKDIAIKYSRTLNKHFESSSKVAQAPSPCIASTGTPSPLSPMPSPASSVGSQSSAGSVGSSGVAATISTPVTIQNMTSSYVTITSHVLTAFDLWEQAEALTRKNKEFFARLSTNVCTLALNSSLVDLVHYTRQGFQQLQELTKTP
UniProt Q9Y305: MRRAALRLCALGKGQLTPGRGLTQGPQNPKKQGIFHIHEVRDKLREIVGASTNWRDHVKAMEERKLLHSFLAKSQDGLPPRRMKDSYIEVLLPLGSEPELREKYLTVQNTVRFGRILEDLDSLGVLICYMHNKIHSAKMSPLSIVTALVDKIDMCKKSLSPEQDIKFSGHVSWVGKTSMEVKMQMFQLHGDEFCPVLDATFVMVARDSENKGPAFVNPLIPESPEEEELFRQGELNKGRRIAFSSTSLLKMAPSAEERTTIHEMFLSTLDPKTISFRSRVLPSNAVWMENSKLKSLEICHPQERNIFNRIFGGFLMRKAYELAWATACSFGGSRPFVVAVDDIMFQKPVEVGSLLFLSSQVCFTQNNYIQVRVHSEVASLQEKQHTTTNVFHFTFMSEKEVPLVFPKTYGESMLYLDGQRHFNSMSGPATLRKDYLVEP
UniProt P24666: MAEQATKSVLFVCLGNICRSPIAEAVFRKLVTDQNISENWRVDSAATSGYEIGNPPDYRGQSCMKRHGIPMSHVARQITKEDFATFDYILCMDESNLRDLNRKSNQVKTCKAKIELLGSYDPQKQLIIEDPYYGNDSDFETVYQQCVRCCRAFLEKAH
UniProt Q96SZ5, whole entry, looked up: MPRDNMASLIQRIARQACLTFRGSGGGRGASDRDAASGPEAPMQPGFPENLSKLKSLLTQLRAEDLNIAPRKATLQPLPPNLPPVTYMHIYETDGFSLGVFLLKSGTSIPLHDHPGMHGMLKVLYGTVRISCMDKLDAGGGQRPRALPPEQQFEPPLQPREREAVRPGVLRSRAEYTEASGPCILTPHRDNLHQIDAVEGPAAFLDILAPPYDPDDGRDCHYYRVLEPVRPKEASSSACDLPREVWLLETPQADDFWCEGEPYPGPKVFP
UniProt P14550: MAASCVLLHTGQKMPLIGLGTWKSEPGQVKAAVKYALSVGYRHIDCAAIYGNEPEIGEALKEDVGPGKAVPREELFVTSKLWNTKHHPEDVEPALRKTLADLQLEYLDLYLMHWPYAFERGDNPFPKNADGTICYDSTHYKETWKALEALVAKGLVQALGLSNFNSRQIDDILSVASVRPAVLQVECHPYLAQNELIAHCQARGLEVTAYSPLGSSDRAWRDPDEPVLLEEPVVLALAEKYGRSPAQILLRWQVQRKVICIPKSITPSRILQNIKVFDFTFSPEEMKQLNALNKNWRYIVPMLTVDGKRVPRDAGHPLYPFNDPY
UniProt P12814, whole entry, looked up: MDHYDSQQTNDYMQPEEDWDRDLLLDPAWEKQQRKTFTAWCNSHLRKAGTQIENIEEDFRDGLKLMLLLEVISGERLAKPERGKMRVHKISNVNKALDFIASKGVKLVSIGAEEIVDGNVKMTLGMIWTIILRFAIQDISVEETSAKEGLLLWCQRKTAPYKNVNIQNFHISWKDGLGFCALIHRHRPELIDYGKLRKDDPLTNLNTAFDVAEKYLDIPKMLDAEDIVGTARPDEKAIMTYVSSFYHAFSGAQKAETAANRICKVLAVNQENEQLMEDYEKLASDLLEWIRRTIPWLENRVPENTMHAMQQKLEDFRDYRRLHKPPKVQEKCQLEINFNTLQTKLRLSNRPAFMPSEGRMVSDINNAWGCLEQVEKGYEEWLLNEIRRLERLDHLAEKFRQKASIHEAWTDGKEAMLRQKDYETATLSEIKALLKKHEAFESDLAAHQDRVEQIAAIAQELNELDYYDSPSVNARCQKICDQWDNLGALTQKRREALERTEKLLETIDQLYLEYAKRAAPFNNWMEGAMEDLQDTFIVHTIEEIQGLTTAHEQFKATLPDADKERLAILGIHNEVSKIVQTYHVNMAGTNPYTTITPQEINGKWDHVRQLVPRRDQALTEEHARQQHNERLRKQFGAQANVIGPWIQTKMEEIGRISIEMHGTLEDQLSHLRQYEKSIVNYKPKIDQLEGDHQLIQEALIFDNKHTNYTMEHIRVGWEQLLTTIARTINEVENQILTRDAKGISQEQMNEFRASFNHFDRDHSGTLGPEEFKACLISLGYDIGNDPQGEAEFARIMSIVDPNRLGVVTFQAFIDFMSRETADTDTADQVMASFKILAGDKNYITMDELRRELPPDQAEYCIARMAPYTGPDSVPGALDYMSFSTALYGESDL

Experiments:
Assay in all cases: log2 fold change, soluble protein after heating vs DMSO (PISA); higher = thermal stabilisation; K562 lysate, 10 uM; active = over 0.2 and 3.5 SD of the protein, either way, in both replicates (recomputed)
[1] = compound: CN1CC[C@H](c2c(O)cc(O)c3c(=O)cc(-c4ccccc4Cl)oc23)[C@H](O)C1 [alvocidib]
Outline: (§1)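 Dounce homogenisation of K562 pellets in PBS pH 7.4 with 1 mM MgCl2 produced a crude extract, used at 1 mg/mL protein. Exposure to 10 μM compound lasted 30 min, and aliquots were then heated for 3 min across 48°C-58°C, pooled and brought to 0.5% NP-40 at 4°C. The supernatant after 21,000xg for 90 min was quantified by TMTpro 16plex LC-MS/MS with channel sums equalised. Duplicate values are given as log-two fold change in thermal stability relative to solvent controls.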

[2] = compound: CN1CCc2c(c3ccccc3n2Cc2ccc(C(=O)NO)cc2)C1 [Tubastatin A]
Outline: as §1

[3] = compound: CNC(=O)C1=CC=CC=C1NC2=NC(=NC=C2Cl)NC3=C(C=C(C=C3)N4CCOCC4)OC
Outline: as §1

[4] = compound: CNC(=O)c1ccc(Nc2ncc(C(F)(F)F)c(NCc3nccnc3N(C)S(C)(=O)=O)n2)cc1 [defactinib]
Outline: as §1

[5] = compound: CNc1nc(-c2ccc3c(N)n[nH]c3c2)cc(N2C[C@@H](C(=O)NC3CCCCC3)CC[C@H]2C)n1
Outline: as §1

[6] = compound: COC(=O)N[C@@H](C)CNc1nccc(-c2cn(C(C)C)nc2-c2cc(Cl)cc(NS(C)(=O)=O)c2F)n1 [encorafenib]
Outline: as §1

[7] = compound: COC(=O)[C@H](CCSC)NC(=O)C1=C(C=C(C=C1)NC[C@H](CS)N)C2=CC=CC=C2
Outline: as §1

[8] = compound: COc1cc(Nc2ncc3c(n2)-c2ccc(Cl)cc2C(c2c(F)cccc2OC)=NC3)ccc1C(=O)O [alisertib]
Outline: as §1

[9] = compound: COc1cc2nc(-c3cc(F)ccc3O)nc(N[C@@H]3CNC[C@H]3C(C)(C)O)c2cc1OC
Outline: as §1

[10] = compound: COc1cc2ncnc(Nc3ccc(F)c(Cl)c3)c2cc1OCCCN1CCOCC1 [gefitinib]
Outline: as §1

Measured: log2 fold change

ADGRE2 (UniProt Q9UHX3)
inactive: [1] 0.025 | [2] -0.011 | [3] -0.011 | [4] 0.001 | [5] 0.019 | [6] -0.006 | [7] 0.148 | [8] -0.042 | [9] 0.071 | [10] 0.084

AIFM1 (UniProt O95831)
inactive: [1] 0.002 | [2] 0.04 | [3] 0.01 | [4] -0.033 | [5] 0.028 | [6] -0.021 | [7] -0.02 | [8] -0.013 | [9] -0.011 | [10] 0.007

ADNP (UniProt Q9H2P0)
inactive: [1] -0.053 | [2] -0.033 | [3] 0.015 | [4] -0.022 | [5] 0.024 | [6] 0.018 | [7] 0.138 | [8] -0.028 | [9] 0.018 | [10] -0.024

ADAR isoform 4 (UniProt P55265)
inactive: [1] -0.004 | [2] -0.167 | [3] 0.012 | [4] 0.054 | [5] -0.001 | [6] 0.052 | [7] -0.041 | [8] 0.045 | [9] 0.013 | [10] 0.02

AGPS (UniProt O00116)
inactive: [1] -0.011 | [2] 0.039 | [3] -0.046 | [4] -0.003 | [5] 0.011 | [6] -0.005 | [7] -0.125 | [8] 0.035 | [9] -0.03 | [10] -0.002

ADPGK (UniProt Q9BRR6)
inactive: [1] -0.008 | [2] -0.001 | [3] 0.097 | [4] 0.015 | [5] -0.09 | [6] 0.033 | [7] -0.025 | [8] -0.026 | [9] 0.085 | [10] 0.041

ACTR1B (UniProt P42025)
inactive: [1] 0.012 | [2] 0.025 | [3] -0.028 | [4] -0.022 | [5] 0.096 | [6] -0.019 | [7] 0.084 | [8] 0.006 | [9] -0.01 | [10] 0.057

ACOT7 isoform 7 (UniProt O00154)
inactive: [1] -0.015 | [2] 0.043 | [3] 0.022 | [4] -0.002 | [5] 0.026 | [6] 0.022 | [7] -0.02 | [8] -0.013 | [9] 0.012 | [10] -0.027

AIMP1 isoform 2 (UniProt Q12904)
inactive: [1] 0.056 | [2] -0.118 | [3] 0.01 | [4] 0.018 | [5] 0.028 | [6] -0.005 | [7] 0.11 | [8] 0.004 | [9] -0.009 | [10] -0.029

AHNAK (UniProt Q09666)
inactive: [1] -0.02 | [2] 0.064 | [3] 0.012 | [4] -0.007 | [5] 0.058 | [6] 0 | [7] -0.03 | [8] 0.005 | [9] 0.026 | [10] -0.053

AKAP11 (UniProt Q9UKA4)
inactive: [1] 0.032 | [2] 0.026 | [3] 0.001 | [4] 0.093 | [5] -0.01 | [6] -0.03 | [7] 0.144 | [8] -0.022 | [9] -0.119 | [10] -0.114

AGK (UniProt Q53H12)
inactive: [1] 0.001 | [2] 0.057 | [3] -0.032 | [4] 0.014 | [5] 0.067 | [6] -0.004 | [7] 0.06 | [8] -0.02 | [9] -0.057 | [10] -0.041

ACOT8 (UniProt O14734)
inactive: [1] -0.047 | [2] 0.043 | [3] -0.025 | [4] -0.024 | [5] 0.036 | [6] 0.005 | [7] -0.203 | [8] 0.014 | [9] 0.007 | [10] -0.07

ACTG1 (UniProt I3L4N8)
inactive: [1] 0.089 | [2] 0.119 | [3] 0.046 | [4] -0.142 | [5] -0.005 | [6] 0.209 | [7] 0 | [8] -0.198 | [9] -0.003 | [10] -0.115

ACTR3 (UniProt P61158)
inactive: [1] -0.007 | [2] 0.013 | [3] -0.011 | [4] -0.005 | [5] -0.08 | [6] 0 | [7] -0.025 | [8] 0.01 | [9] -0.031 | [10] -0.013

Taken from the results shown (seven entries):
ACOT7 isoform 7 (UniProt O00154)
inactive: [1] -0.015 | [2] 0.043 | [3] 0.022 | [4] -0.002 | [5] 0.026 | [6] 0.022 | [7] -0.02 | [8] -0.013 | [9] 0.012 | [10] -0.027

AIMP1 isoform 2 (UniProt Q12904)
inactive: [1] 0.056 | [2] -0.118 | [3] 0.01 | [4] 0.018 | [5] 0.028 | [6] -0.005 | [7] 0.11 | [8] 0.004 | [9] -0.009 | [10] -0.029

AHNAK (UniProt Q09666)
inactive: [1] -0.02 | [2] 0.064 | [3] 0.012 | [4] -0.007 | [5] 0.058 | [6] 0 | [7] -0.03 | [8] 0.005 | [9] 0.026 | [10] -0.053

AKAP11 (UniProt Q9UKA4)
inactive: [1] 0.032 | [2] 0.026 | [3] 0.001 | [4] 0.093 | [5] -0.01 | [6] -0.03 | [7] 0.144 | [8] -0.022 | [9] -0.119 | [10] -0.114

AGK (UniProt Q53H12)
inactive: [1] 0.001 | [2] 0.057 | [3] -0.032 | [4] 0.014 | [5] 0.067 | [6] -0.004 | [7] 0.06 | [8] -0.02 | [9] -0.057 | [10] -0.041

ACOT8 (UniProt O14734)
inactive: [1] -0.047 | [2] 0.043 | [3] -0.025 | [4] -0.024 | [5] 0.036 | [6] 0.005 | [7] -0.203 | [8] 0.014 | [9] 0.007 | [10] -0.07

ACTG1 (UniProt I3L4N8)
inactive: [1] 0.089 | [2] 0.119 | [3] 0.046 | [4] -0.142 | [5] -0.005 | [6] 0.209 | [7] 0 | [8] -0.198 | [9] -0.003 | [10] -0.115

The list goes on.

AFF1 isoform 2 (UniProt P51825)
inactive: [1] -0.157 | [2] 0.052 | [3] 0.076 | [4] 0.083 | [5] 0.004 | [6] -0.001 | [7] -0.033 | [8] -0.043 | [9] 0.157 | [10] -0.323

ACOT9 isoform 4 (UniProt Q9Y305)
inactive: [1] 0.027 | [2] -0.125 | [3] -0.029 | [4] -0.001 | [5] -0.008 | [6] 0.003 | [7] 0.053 | [8] 0.021 | [9] -0.014 | [10] -0.008

AKR1B1 (UniProt P15121)
inactive: [1] 0.033 | [2] 0.023 | [3] -0.003 | [4] -0.01 | [5] -0.072 | [6] 0.019 | [7] 0.009 | [8] 0.015 | [9] -0.008 | [10] -0.016

ADSL (UniProt P30566)
inactive: [1] 0.04 | [2] 0.043 | [3] 0 | [4] -0.014 | [5] 0.013 | [6] -0.02 | [7] -0.196 | [8] -0.001 | [9] 0.001 | [10] -0.007

ACP1 (UniProt P24666)
inactive: [1] -0.092 | [2] -0.093 | [3] -0.021 | [4] -0.013 | [5] -0.045 | [6] -0.062 | [7] 0.022 | [8] -0.005 | [9] 0.031 | [10] -0.022

ADO (UniProt Q96SZ5)
inactive: [1] -0.022 | [2] 0.09 | [3] -0.021 | [4] -0.001 | [5] 0.047 | [6] -0.04 | [7] 0.047 | [8] 0.027 | [9] 0.003 | [10] 0

ACTR3B (UniProt Q9P1U1)
inactive: [1] -0.012 | [2] 0 | [3] -0.001 | [4] 0.05 | [5] 0.049 | [6] -0.026 | [7] -0.047 | [8] -0.007 | [9] -0.002 | [10] 0.009

ACTL6A (UniProt O96019)
inactive: [1] -0.009 | [2] 0.014 | [3] -0.039 | [4] 0.012 | [5] 0.018 | [6] -0.012 | [7] 0.015 | [8] -0.032 | [9] -0.005 | [10] -0.005

AKR1A1 (UniProt P14550)
inactive: [1] -0.006 | [2] 0.01 | [3] -0.007 | [4] -0.008 | [5] 0.001 | [6] -0.044 | [7] 0.052 | [8] -0.014 | [9] -0.006 | [10] 0.024

AGO2 (UniProt Q9UKV8)
inactive: [1] 0.016 | [2] -0.009 | [3] 0.009 | [4] -0.001 | [5] 0.039 | [6] 0.018 | [7] -0.061 | [8] -0.016 | [9] 0.009 | [10] 0.046

AKAP8 (UniProt O43823)
inactive: [1] -0.031 | [2] -0.038 | [3] -0.059 | [4] -0.001 | [5] -0.073 | [6] 0.072 | [7] -0.098 | [8] 0.02 | [9] 0.058 | [10] -0.042

ACTN1 isoform 3 (UniProt P12814)
inactive: [1] -0.001 | [2] 0.031 | [3] 0.014 | [4] -0.022 | [5] 0.003 | [6] -0.021 | [7] -0.017 | [8] -0.003 | [9] 0.008 | [10] -0.016
